This is an account of results in ChEMBL document CHEMBL4043309, “Computer-Aided Discovery and Characterization of Novel Ebola Virus Inhibitors” (J Med Chem, 2018).

Structures are written as SMILES.

The IC50 is the concentration that gives 50% inhibition. Low values mean greater potency in that assay, high ones weaker potency in that assay.

A short description of the assay: cells. It counts as cell-based, Ebolavirus. Particulars: Orthoebolavirus, HeLa, 4.5 h.

As for `CC(C)(C)c1ccc(C(=O)CCCN2CCC(OC(c3ccccc3)c3ccccc3)CC2)cc1` [EBASTINE], the IC50 stood at 9.56 µM.

With `CC/C(=C(\c1ccccc1)c1ccc(OCCN(C)C)cc1)c1ccccc1` [TAMOXIFEN], half-maximal inhibition (IC50) was put at 0.73 µM.
